These are yes or no findings as the source states them, for the method shown. Some binding calls cover weakened binding; strength is not graded here. For some of these results: Tags and fused reporters may be left off the sequences shown.
Columns and labels:
LGR5-Fc = target: T1, LGR5-Fc (UniProt O75473); assay: phage display selection from TRX-3 library
T1 sequence (biotinylated with BirA + ATP + Biotin, looked up): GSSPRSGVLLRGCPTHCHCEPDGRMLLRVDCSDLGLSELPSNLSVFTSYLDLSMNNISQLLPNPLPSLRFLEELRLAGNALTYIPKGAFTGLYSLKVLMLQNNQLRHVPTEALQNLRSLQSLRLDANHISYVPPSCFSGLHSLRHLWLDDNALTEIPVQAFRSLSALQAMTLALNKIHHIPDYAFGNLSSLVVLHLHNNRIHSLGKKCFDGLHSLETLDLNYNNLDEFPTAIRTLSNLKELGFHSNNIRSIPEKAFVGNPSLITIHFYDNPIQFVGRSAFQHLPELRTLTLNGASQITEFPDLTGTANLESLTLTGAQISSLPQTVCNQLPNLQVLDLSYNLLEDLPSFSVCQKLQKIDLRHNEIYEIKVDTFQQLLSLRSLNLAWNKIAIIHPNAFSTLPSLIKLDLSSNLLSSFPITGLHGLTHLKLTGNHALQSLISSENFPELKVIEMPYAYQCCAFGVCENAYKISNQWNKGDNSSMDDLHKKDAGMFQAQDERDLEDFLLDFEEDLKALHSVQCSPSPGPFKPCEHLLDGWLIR

Amino acid sequences for entries named in this document (tags omitted). Residues count along the entry.
UniProt P02768, residues 25-609: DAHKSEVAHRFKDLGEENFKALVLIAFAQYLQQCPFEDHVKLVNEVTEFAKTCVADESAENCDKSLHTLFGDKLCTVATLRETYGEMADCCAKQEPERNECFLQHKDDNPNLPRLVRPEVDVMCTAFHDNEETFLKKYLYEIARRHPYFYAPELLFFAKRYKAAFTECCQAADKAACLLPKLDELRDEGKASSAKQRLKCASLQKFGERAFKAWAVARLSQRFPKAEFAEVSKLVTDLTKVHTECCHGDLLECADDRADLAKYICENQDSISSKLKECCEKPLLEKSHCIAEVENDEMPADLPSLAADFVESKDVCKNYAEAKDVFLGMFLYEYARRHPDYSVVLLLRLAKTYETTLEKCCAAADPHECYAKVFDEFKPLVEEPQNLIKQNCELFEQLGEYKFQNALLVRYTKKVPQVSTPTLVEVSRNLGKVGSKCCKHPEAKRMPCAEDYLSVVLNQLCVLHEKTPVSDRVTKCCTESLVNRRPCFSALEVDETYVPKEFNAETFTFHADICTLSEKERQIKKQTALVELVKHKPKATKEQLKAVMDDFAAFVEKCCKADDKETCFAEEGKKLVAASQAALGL
UniProt P07766, residues 23-126: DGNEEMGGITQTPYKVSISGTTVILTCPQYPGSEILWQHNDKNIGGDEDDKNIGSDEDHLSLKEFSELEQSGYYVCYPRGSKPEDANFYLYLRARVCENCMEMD

[1] = target: human serum albumin (human) (UniProt P02768); assay: SPR, Biacore T100, HSA on CM5 chip
[2] = target: CD3e (recombinant target protein of Table 9) (UniProt P07766); assay: phage display selection from TRX-3 library
[3] = target: T2, EpCam (recombinant target protein of Table 9) (UniProt P16422); assay: phage display selection from TRX-3 library
T2 sequence (biotinylated with BirA + ATP + Biotin, looked up): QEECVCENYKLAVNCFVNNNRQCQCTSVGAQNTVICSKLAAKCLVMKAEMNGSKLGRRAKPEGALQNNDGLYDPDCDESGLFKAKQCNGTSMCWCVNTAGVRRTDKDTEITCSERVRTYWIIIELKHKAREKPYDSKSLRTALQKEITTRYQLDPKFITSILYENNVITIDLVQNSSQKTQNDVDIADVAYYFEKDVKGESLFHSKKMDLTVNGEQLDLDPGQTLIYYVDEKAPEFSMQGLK

[4] = target: human serum albumin (human) (UniProt P02768); assay: phage ELISA summary (FIG. 18C)
[5] = target: human serum albumin (human) (UniProt P02768); assay: phage display selection from TRX-3 library
[6] = target: human serum albumin (human) (UniProt P02768); assay: phage ELISA, HSA-biotin on streptavidin plate
[7] = target: human serum albumin (human) (UniProt P02768); assay: phage ELISA, HSA-biotin on streptavidin plate (FIG. 18B)
[8] = target: human serum albumin (human) (UniProt P02768); assay: phage ELISA in triplets, HSA-biotin on streptavidin plate

B1: LGR5 binder A7 (TRX-3 library) (designed binder)
chain: MVKQIESKTAFQEALDAAGDKLVVVDFSATSWSGPSKMIKPFFHSLSEKYSNVIFLEVDVDDAQDVASEAAWLTPNRVPPTFQFFKKGQKVGEFSGANKEKLEATINELV
LGR5-Fc
  binding: binds

B2: mutant TRX protein F3 (HSA binder, purified) (designed binder)
chain: MVKQIESKTAFQEALDAAGDKLVVVDFSATGGTPGRRNRWSGPSKMIKPFFHSLSEKYSNVIFLEVDVDDAQDVASEAFCEFCFPFLPTFQFFKKGQKVGEFSGANKEKLEATINELV
[1]
  binding: binds

B3: CD3ε binder C8 (TRX-3 library) (designed binder)
chain: MVKQIESKTAFQEALDAAGDKLVVVDFSATPKARTKRNSWSGPSKMIKPFFHSLSEKYSNVIFLEVDVDDAQDVASEAMIFGRLVIIPTFQFFKKGQKVGEFSGANKEKLEATINELV
[2]
  binding: binds

B4: EpCAM binder F2 (TRX-3 library) (designed binder)
chain: MVKQIESKTAFQEALDAAGDKLVVVDFSATQCWARRRDRWSGPSKMIKPFFHSLSEKYSNVIFLEVDVDDAQDVASEAGPRNTLLCFPTFQFFKKGQKVGEFSGANKEKLEATINELV
[3]
  binding: binds

B5: CD3ε binder E8 (TRX-3 library) (designed binder)
chain: MVKQIESKTAFQEALDAAGDKLVVVDFSATNRRPQRNAKWSGPSKMIKPFFHSLSEKYSNVIFLEVDVDDAQDVASEALMLFFSRIIPTFQFFKKGQKVGEFSGANKEKLEATINELV
[2]
  binding: binds

B6: CD3ε binder A3 (TRX-3 library) (designed binder)
chain: MVKQIESKTAFQEALDAAGDKLVVVDFSATGRCYVDGRLWSGPSKMIKPFFHSLSEKYSNVIFLEVDVDDAQDVASEAKRMLCLVRTPTFQFFKKGQKVGEFSGANKEKLEATINELV
[2]
  binding: binds

B7: LGR5 binder B2 (TRX-3 library) (designed binder)
chain: MVKQIESKTAFQEALDAAGDKLVVVDFSATSANSGWCCGWSGPSKMIKPFFHSLSEKYSNVIFLEVDVDDAQDVASEALDIESFLYFPTFQFFKKGQKVGEFSGANKEKLEATINELV
LGR5-Fc
  binding: binds

B8: mutant TRX protein E2 (HSA binder, purified) (designed binder)
chain: MVKQIESKTAFQEALDAAGDKLVVVDFSATKNEKRDVAEWSGPSKMIKPFFHSLSEKYSNVIFLEVDVDDAQDVASEAFGFFGFPVLPTFQFFKKGQKVGEFSGANKEKLEATINELV
[1]
  binding: binds

B9: HSA binder E1 (TRX-3 library), phage-displayed (designed binder)
chain: MVKQIESKTAFQEALDAAGDKLVVVDFSATRSENDRWNEWSGPSKMIKPFFHSLSEKYSNVIFLEVDVDDAQDVASEALIAGPFWYSPTFQFFKKGQKVGEFSGANKEKLEATINELV
[4]
  binding: binds
[5]
  binding: binds
[6]
  binding: binds
[7]
  binding: binds
[8]
  binding: binds

B10: EpCAM binder F10 (TRX-3 library) (designed binder)
chain: MVKQIESKTAFQEALDAAGDKLVVVDFSATGKVCGGKRRWSGPSKMIKPFFHSLSEKYSNVIFLEVDVDDAQDVASEAARPHFCPVMPTFQFFKKGQKVGEFSGANKEKLEATINELV
[3]
  binding: binds

B11: HSA binder G5 (TRX-3 library), phage-displayed (designed binder)
chain: MVKQIESKTAFQEALDAAGDKLVVVDFSATRLRTGGHPYWSGPSKMIKPFFHSLSEKYSNVIFLEVDVDDAQDVASEAVYVSLSRHRPTFQFFKKGQKVGEFSGANKEKLEATINELV
[4]
  binding: binds
[5]
  binding: binds
[6]
  binding: binds
[7]
  binding: binds
[8]
  binding: binds

B12: EpCAM binder G9 (TRX-3 library) (designed binder)
chain: MVKQIESKTAFQEALDAAGDKLVVVDFSATWNTRAHCSRWSGPSKMIKPFFHSLSEKYSNVIFLEVDVDDAQDVASEALLPPLCTIDPTFQFFKKGQKVGEFSGANKEKLEATINELV
[3]
  binding: binds

B13: LGR5 binder B5 (TRX-3 library) (designed binder)
chain: MVKQIESKTAFQEALDAAGDKLVVVDFSATEEKGYEGRRWSGPSKMIKPFFHSLSEKYSNVIFLEVDVDDAQDVASEAYVPFSLSGYPTFQFFKKGQKVGEFSGANKEKLEATINELV
LGR5-Fc
  binding: binds

B14: EpCAM binder H3 (TRX-3 library) (designed binder)
chain: MVKQIESKTAFQEALDAAGDKLVVVDFSATNKRGEGWQKWSGPSKMIKPFFHSLSEKYSNVIFLEVDVDDAQDVASEASVIMWPQLWPTFQFFKKGQKVGEFSGANKEKLEATINELV
[3]
  binding: binds

B15: CD3ε binder C7 (TRX-3 library) (designed binder)
chain: MVKQIESKTAFQEALDAAGDKLVVVDFSATSARVWSCIPWSGPSKMIKPFFHSLSEKYSNVIFLEVDVDDAQDVASEASRPLTLIRSPTFQFFKKGQKVGEFSGANKEKLEATINELV
[2]
  binding: binds

B16: LGR5 binder D2 (TRX-3 library) (designed binder)
chain: MVKQIESKTAFQEALDAAGDKLVVVDFSATRYEETTRQHWSGPSKMIKPFFHSLSEKYSNVIFLEVDVDDAQDVASEARVASKRSAFPTFQFFKKGQKVGEFSGANKEKLEATINELV
LGR5-Fc
  binding: binds

B17: HSA binder E5 (TRX-3 library), phage-displayed (designed binder)
chain: MVKQIESKTAFQEALDAAGDKLVVVDFSATRRNERARDWWSGPSKMIKPFFHSLSEKYSNVIFLEVDVDDAQDVASEALAAGPFYLLPTFQFFKKGQKVGEFSGANKEKLEATINELV
[4]
  binding: binds
[5]
  binding: binds
[6]
  binding: binds
[7]
  binding: binds
[8]
  binding: binds

B18: EpCAM binder H2 (TRX-3 library) (designed binder)
chain: MVKQIESKTAFQEALDAAGDKLVVVDFSATKENNGWRGNWSGPSKMIKPFFHSLSEKYSNVIFLEVDVDDAQDVASEAMAGPRVMGPPTFQFFKKGQKVGEFSGANKEKLEATINELV
[3]
  binding: binds

B19: mutant TRX protein H6 (HSA binder, purified) (designed binder)
chain: MVKQIESKTAFQEALDAAGDKLVVVDFSATDRKPWKTRGWSGPSKMIKPFFHSLSEKYSNVIFLEVDVDDAQDVASEAFGLFSFPLLPTFQFFKKGQKVGEFSGANKEKLEATINELV
[1]
  binding: binds

B20: EpCAM binder F1 (TRX-3 library) (designed binder)
chain: MVKQIESKTAFQEALDAAGDKLVVVDFSATNWSSSSGKDWSGPSKMIKPFFHSLSEKYSNVIFLEVDVDDAQDVASEARYVFPPEAVPTFQFFKKGQKVGEFSGANKEKLEATINELV
[3]
  binding: binds

B21: LGR5 binder E7 (TRX-3 library) (designed binder)
chain: MVKQIESKTAFQEALDAAGDKLVVVDFSATKWESPYEAVWSGPSKMIKPFFHSLSEKYSNVIFLEVDVDDAQDVASEALSHSVPYYLPTFQFFKKGQKVGEFSGANKEKLEATINELV
LGR5-Fc
  binding: binds

B22: EpCAM binder F3 (TRX-3 library) (designed binder)
chain: MVKQIESKTAFQEALDAAGDKLVVVDFSATDTTKDRGGTWSGPSKMIKPFFHSLSEKYSNVIFLEVDVDDAQDVASEALPWTVQFGYPTFQFFKKGQKVGEFSGANKEKLEATINELV
[3]
  binding: binds

B23: EpCAM binder H9 (TRX-3 library) (designed binder)
chain: MVKQIESKTAFQEALDAAGDKLVVVDFSATCYAVREGQGWSGPSKMIKPFFHSLSEKYSNVIFLEVDVDDAQDVASEALYTALLYCTPTFQFFKKGQKVGEFSGANKEKLEATINELV
[3]
  binding: binds

B24: CD3ε binder C4 (TRX-3 library) (designed binder)
chain: MVKQIESKTAFQEALDAAGDKLVVVDFSATVTCDHEGCKWSGPSKMIKPFFHSLSEKYSNVIFLEVDVDDAQDVASEASNFAVTFFFPTFQFFKKGQKVGEFSGANKEKLEATINELV
[2]
  binding: binds

B25: EpCAM binder F11 (TRX-3 library) (designed binder)
chain: MVKQIESKTAFQEALDAAGDKLVVVDFSATRDARAAPPSWSGPSKMIKPFFHSLSEKYSNVIFLEVDVDDAQDVASEALPWPSYFGLPTFQFFKKGQKVGEFSGANKEKLEATINELV
[3]
  binding: binds
